Test results as given in patent publication US7947715B2, “Isoxazoline compound and pesticide” (Nissan Chemical Industries, Ltd., priority 2006, dated 2011).
Some results were stated once for a whole list of compounds, not compound by compound. For at least one compound, name, drawing or mass did not settle the structure.

System: cabbage moth (Plutella xylostella)
Assay: Insecticidal test against cabbage moth (leaf dip)
Format: in vivo
Conditions: second instar larva, after 6 days

SMILES | insecticidal rate (rate of dead insects) (10 ppm (**)) [%] | insecticidal rate (rate of dead insects) (100 ppm (*)) [%] | also measured
O=C(NCc1ccc(C2=NOC(c3cc(C(F)(F)F)cc(C(F)(F)F)c3)(C(F)(F)F)C2)cc1I)C1CC1 (stereo not shown) [2-433] | ≥ 80 | – | –
C#Cc1cc(C2=NOC(c3cc(C(F)(F)F)cc(C(F)(F)F)c3)(C(F)(F)F)C2)ccc1CNC(=O)C1CC1 (stereo not shown) [2-435] | ≥ 80 | – | –
N#Cc1cc(C2=NOC(c3cc(C(F)(F)F)cc(C(F)(F)F)c3)(C(F)(F)F)C2)ccc1CNC(=O)C1CC1 (stereo not shown) [2-436] | ≥ 80 | – | –
O=C(NCc1ccc(C2=NOC(c3cc(C(F)(F)F)cc(C(F)(F)F)c3)(C(F)(F)F)C2)cc1[N+](=O)[O-])C1CC1 (stereo not shown) [2-437] | ≥ 80 | – | –
CC(NC(=O)C1CC1)c1ccc(C2=NOC(c3cc(Cl)cc(C(F)(F)F)c3)(C(F)(F)F)C2)cc1 (stereo not shown) [2-438] | – | ≥ 80 | –
C[C@H](NC(=O)C1CC1)c1ccc(C2=NOC(c3cc(C(F)(F)F)cc(C(F)(F)F)c3)(C(F)(F)F)C2)cc1 (stereo partly shown) [2-441] | ≥ 80 | – | –
CC(NC(=O)C1CC1)c1ccc(C2=NOC(c3cc(Cl)c(Cl)c(C(F)(F)F)c3)(C(F)(F)F)C2)cc1 (stereo not shown) [2-443] | ≥ 80 | – | –
CC(NC(=O)C1CC1)c1ccc(C2=NOC(c3cc(C(F)(F)F)cc(C(F)(F)F)c3)(C(F)(F)F)C2)cc1Br (stereo not shown) [2-444] | ≥ 80 | – | –
CC(NC(=O)C1CC1)c1ccc(C2=NOC(c3cc(C(F)(F)F)cc(C(F)(F)F)c3)(C(F)(F)F)C2)cc1I (stereo not shown) [2-445] | ≥ 80 | – | –
CC(NC(=O)C1CC1)c1ccc(C2=NOC(c3cc(C(F)(F)F)cc(C(F)(F)F)c3)(C(F)(F)F)C2)cc1[N+](=O)[O-] (stereo not shown) [2-446] | – | ≥ 80 | –
CSCC(NC(=O)C1CC1)c1ccc(C2=NOC(c3cc(Cl)cc(Cl)c3)(C(F)(F)F)C2)cc1 (stereo not shown) [2-447] | – | – | insecticidal rate (rate of dead insects) (500 ppm): ≥ 80%
C#CC(NC(=O)C1CC1)c1ccc(C2=NOC(c3cc(C(F)(F)F)cc(C(F)(F)F)c3)(C(F)(F)F)C2)cc1 (stereo not shown) [2-448] | ≥ 80 | – | –
N#CC(NC(=O)C1CC1)c1ccc(C2=NOC(c3cc(Cl)c(Cl)c(C(F)(F)F)c3)(C(F)(F)F)C2)cc1 (stereo not shown) [2-449] | ≥ 80 | – | –
N#CC(NC(=O)C1CC1)c1ccc(C2=NOC(c3cc(C(F)(F)F)cc(C(F)(F)F)c3)(C(F)(F)F)C2)cc1Cl (stereo not shown) [2-450] | – | ≥ 80 | –
N#CC(NC(=O)C1CC1)c1ccc(C2=NOC(c3cc(C(F)(F)F)cc(C(F)(F)F)c3)(C(F)(F)F)C2)cc1Br (stereo not shown) [2-451] | ≥ 80 | – | –
N#CC(NC(=O)C1CC1)c1ccc(C2=NOC(c3cc(Cl)cc(Cl)c3)(C(F)(F)F)C2)cc1I (stereo not shown) [2-452] | ≥ 80 | – | –
N#CC(NC(=O)C1CC1)c1ccc(C2=NOC(c3cc(C(F)(F)F)cc(C(F)(F)F)c3)(C(F)(F)F)C2)cc1I (stereo not shown) [2-453] | ≥ 80 | – | –
Cc1cc(C2=NOC(c3cc(Cl)cc(Cl)c3)(C(F)(F)F)C2)ccc1C(C#N)NC(=O)C1CC1 (stereo not shown) [2-454] | ≥ 80 | – | –
NC(=O)C(NC(=O)C1CC1)c1ccc(C2=NOC(c3cc(Cl)cc(Cl)c3)(C(F)(F)F)C2)cc1 (stereo not shown) [2-455] | – | – | insecticidal rate (rate of dead insects) (500 ppm): ≥ 80%
CC(C)CC(=O)NCc1ccc(C2=NOC(c3cc(C(F)(F)F)cc(C(F)(F)F)c3)(C(F)(F)F)C2)cc1F (stereo not shown) [2-456] | – | ≥ 80 | –
CC(C)CC(=O)NCc1ccc(C2=NOC(c3cc(Cl)c(Cl)c(C(F)(F)F)c3)(C(F)(F)F)C2)cc1Cl (stereo not shown) [2-461] | ≥ 80 | – | –

SMILES | insecticidal rate (rate of dead insects) (10 ppm (**)) [%] | insecticidal rate (rate of dead insects) (100 ppm (*)) [%] | also measured
CC(C)CC(=O)NCc1ccc(C2=NOC(c3cc(Cl)cc(C(F)(F)F)c3)(C(F)(F)F)C2)cc1Br (stereo not shown) [2-462] | ≥ 80 | – | –
CC(C)CC(=O)NCc1ccc(C2=NOC(c3cc(Cl)c(Cl)c(C(F)(F)F)c3)(C(F)(F)F)C2)cc1Br (stereo not shown) [2-465] | ≥ 80 | – | –
CC(C)CC(=O)NCc1ccc(C2=NOC(c3cc(C(F)(F)F)cc(C(F)(F)F)c3)(C(F)(F)F)C2)cc1[N+](=O)[O-] (stereo not shown) [2-467] | ≥ 80 | – | –
CC(C)CC(=O)NC(C)c1ccc(C2=NOC(c3cc(Cl)cc(C(F)(F)F)c3)(C(F)(F)F)C2)cc1 (stereo not shown) [2-468] | – | ≥ 80 | –
O=C(CC1CC1)NCc1ccc(C2=NOC(c3cc(Cl)cc(C(F)(F)F)c3)(C(F)(F)F)C2)cc1Br (stereo not shown) [2-478] | ≥ 80 | – | –
O=C(CC1CC1)NCc1ccc(C2=NOC(c3cc(C(F)(F)F)cc(C(F)(F)F)c3)(C(F)(F)F)C2)cc1I (stereo not shown) [2-480] | ≥ 80 | – | –
CC(NC(=O)CC1CC1)c1ccc(C2=NOC(c3cc(Cl)cc(C(F)(F)F)c3)(C(F)(F)F)C2)cc1 (stereo not shown) [2-481] | ≥ 80 | – | –
N#CC(NC(=O)CC1CC1)c1ccc(C2=NOC(c3cc(Cl)cc(Cl)c3)(C(F)(F)F)C2)cc1Cl (stereo not shown) [2-485] | – | ≥ 80 | –
Cc1cc(C2=NOC(c3cc(Cl)cc(Cl)c3)(C(F)(F)F)C2)ccc1C(C#N)NC(=O)CC1CC1 (stereo not shown) [2-486] | ≥ 80 | – | –
O=C(NCc1ccc(C2=NOC(c3cc(C(F)(F)F)cc(C(F)(F)F)c3)(C(F)(F)F)C2)cc1Cl)C(Br)Br (stereo not shown) [2-488] | – | – | insecticidal rate (rate of dead insects) (500 ppm): ≥ 80%
O=C(NCc1ccc(C2=NOC(c3cc(C(F)(F)F)cc(C(F)(F)F)c3)(C(F)(F)F)C2)cc1Cl)C1(Br)CC1 (stereo not shown) [2-493] | – | ≥ 80 | –
O=C(NCc1ccc(C2=NOC(c3cc(C(F)(F)F)cc(C(F)(F)F)c3)(C(F)(F)F)C2)cc1Cl)C1CCCO1 (stereo not shown) [2-494] | ≥ 80 | – | –
O=C(NCc1ccc(C2=NOC(c3cc(Cl)cc(C(F)(F)F)c3)(C(F)(F)F)C2)cc1Br)C1CCOC1 (stereo not shown) [2-498] | ≥ 80 | – | –
O=C(NCc1ccc(C2=NOC(c3cc(C(F)(F)F)cc(C(F)(F)F)c3)(C(F)(F)F)C2)cc1I)C1CCOC1 (stereo not shown) [2-500] | – | ≥ 80 | –
O=C(NCc1ccc(C2=NOC(c3cc(C(F)(F)F)cc(C(F)(F)F)c3)(C(F)(F)F)C2)cc1[N+](=O)[O-])C1CCOC1 (stereo not shown) [2-501] | ≥ 80 | – | –
CCSCC(=O)NC(C#N)c1ccc(C2=NOC(c3cc(Cl)cc(Cl)c3)(C(F)(F)F)C2)cc1C (stereo not shown) [2-504] | ≥ 80 | – | –
CC[S+]([O-])CC(=O)NC(C#N)c1ccc(C2=NOC(c3cc(Cl)cc(Cl)c3)(C(F)(F)F)C2)cc1C (stereo not shown) [2-505] | ≥ 80 | – | –
CCS(=O)(=O)CC(=O)NC(C#N)c1ccc(C2=NOC(c3cc(Cl)cc(Cl)c3)(C(F)(F)F)C2)cc1C (stereo not shown) [2-506] | ≥ 80 | – | –
CCS(=N)(=O)CC(=O)NC(C#N)c1ccc(C2=NOC(c3cc(Cl)cc(Cl)c3)(C(F)(F)F)C2)cc1C (stereo not shown) [2-507] | – | ≥ 80 | –
O=C(NCc1ccc(C2=NOC(c3cc(C(F)(F)F)cc(C(F)(F)F)c3)(C(F)(F)F)C2)cc1Cl)C1=CCCS1 (stereo not shown) [2-508] | – | ≥ 80 | –
CC(=O)N(C)CC(=O)NCc1ccc(C2=NOC(c3cc(Cl)c(Cl)c(Cl)c3)(C(F)(F)F)C2)cc1Cl (stereo not shown) [2-512] | – | ≥ 80 | –

SMILES | insecticidal rate (rate of dead insects) (10 ppm (**)) [%] | insecticidal rate (rate of dead insects) (100 ppm (*)) [%] | also measured
COCC(=O)N(C)CC(=O)NCc1ccc(C2=NOC(c3cc(C(F)(F)F)cc(C(F)(F)F)c3)(C(F)(F)F)C2)cc1Cl (stereo not shown) [2-513] | – | ≥ 80 | –
COC(=O)N(C)CC(=O)NCc1ccc(C2=NOC(c3cc(C(F)(F)F)cc(C(F)(F)F)c3)(C(F)(F)F)C2)cc1Cl (stereo not shown) [2-514] | ≥ 80 | – | –
COC(=O)N(CC(=O)NCc1ccc(C2=NOC(c3cc(Cl)c(Cl)c(Cl)c3)(C(F)(F)F)C2)cc1Cl)C1CC1 (stereo not shown) [2-515] | – | – | insecticidal rate (rate of dead insects) (500 ppm): ≥ 80%
CC(C)OC(=O)N(C)CC(=O)NCc1ccc(C2=NOC(c3cc(Cl)c(Cl)c(Cl)c3)(C(F)(F)F)C2)cc1Cl (stereo not shown) [2-516] | – | ≥ 80 | –
CSC(=O)N(C)CC(=O)NCc1ccc(C2=NOC(c3cc(Cl)c(Cl)c(Cl)c3)(C(F)(F)F)C2)cc1Cl (stereo not shown) [2-517] | ≥ 80 | – | –
CN(CC(=O)NCc1ccc(C2=NOC(c3cc(Cl)c(Cl)c(Cl)c3)(C(F)(F)F)C2)cc1Cl)S(C)(=O)=O (stereo not shown) [2-518] | ≥ 80 | – | –
CN(CC(=O)NCc1ccc(C2=NOC(c3cc(C(F)(F)F)cc(C(F)(F)F)c3)(C(F)(F)F)C2)cc1Cl)S(=O)(=O)C(F)(F)F (stereo not shown) [2-519] | ≥ 80 | – | –
CNC(C)C(=O)NCc1ccc(C2=NOC(c3cc(Cl)c(Cl)c(Cl)c3)(C(F)(F)F)C2)cc1Cl (stereo not shown) [2-520] | – | ≥ 80 | –
COC(=O)N(C)C(C)C(=O)NCc1ccc(C2=NOC(c3cc(Cl)c(Cl)c(Cl)c3)(C(F)(F)F)C2)cc1Cl (stereo not shown) [2-521] | – | ≥ 80 | –
CC1=NOC(C(=O)NCc2ccc(C3=NOC(c4cc(C(F)(F)F)cc(C(F)(F)F)c4)(C(F)(F)F)C3)cc2Cl)C1 (stereo not shown) [2-522] | – | ≥ 80 | –
NC(=O)CC(=O)NCc1ccc(C2=NOC(c3cc(Cl)c(Cl)c(Cl)c3)(C(F)(F)F)C2)cc1Cl (stereo not shown) [2-523] | – | ≥ 80 | –
NC(CC(=O)NCc1ccc(C2=NOC(c3cc(C(F)(F)F)cc(C(F)(F)F)c3)(C(F)(F)F)C2)cc1Cl)=NO (stereo not shown) [2-524] | – | ≥ 80 | –
CCON=C(N)CC(=O)NCc1ccc(C2=NOC(c3cc(Cl)c(Cl)c(Cl)c3)(C(F)(F)F)C2)cc1Cl (stereo not shown) [2-525] | – | ≥ 80 | –
CCON=C(CC(=O)NCc1ccc(C2=NOC(c3cc(Cl)c(Cl)c(Cl)c3)(C(F)(F)F)C2)cc1Cl)NC(=O)C(F)(F)F (stereo not shown) [2-526] | – | ≥ 80 | –
C=CCC(=O)NCc1ccc(C2=NOC(c3cc(C(F)(F)F)cc(C(F)(F)F)c3)(C(F)(F)F)C2)cc1Cl (stereo not shown) [2-527] | – | ≥ 80 | –
C#CCCC(=O)NCc1ccc(C2=NOC(c3cc(C(F)(F)F)cc(C(F)(F)F)c3)(C(F)(F)F)C2)cc1I (stereo not shown) [2-529] | – | ≥ 80 | –
C#CCCC(=O)NC(C#N)c1ccc(C2=NOC(c3cc(C(F)(F)F)cc(C(F)(F)F)c3)(C(F)(F)F)C2)cc1 (stereo not shown) [2-530] | ≥ 80 | – | –
O=C(Cc1cccs1)NCc1ccc(C2=NOC(c3cc(C(F)(F)F)cc(C(F)(F)F)c3)(C(F)(F)F)C2)cc1Cl (stereo not shown) [2-531] | – | – | insecticidal rate (rate of dead insects) (500 ppm): ≥ 80%
O=C(Cc1cc2ccccc2s1)NCc1ccc(C2=NOC(c3cc(C(F)(F)F)cc(C(F)(F)F)c3)(C(F)(F)F)C2)cc1Cl (stereo not shown) [2-532] | – | – | insecticidal rate (rate of dead insects) (500 ppm): ≥ 80%
